From PubChem BioAssay AID504834 (National Center for Advancing Translational Sciences (NCATS), 2011)
The whole screen tested about 320,000 compounds, of which about 22,000 (6.9%) were called active. Inconclusive means that the source gave no clear call. Such entries were picked first, then a sample of the others. Calls come from the whole dose curve; as a rule, active = well fitted inhibition curve with a large enough effect; inconclusive = small, poorly fitted or top-dose-only effect, or another doubt; inactive = no such curve, though single readings can be large or run the other way. Where the call is inconclusive, the potency comes from a doubtful curve fit.

Assay: Primary qHTS for delayed death inhibitors of the malarial parasite plastid, 96 hour incubation
Settings: P. falciparum luciferase reporter growth; series mostly up to 28.7 µM
Method in brief: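 Luminescence readout: decreased luciferase signal marks inhibited growth of reporter-expressing P. falciparum in infected red cells (2% hematocrit, 0.05% parasitemia final), exposed to compound two generations (96 h, 37 C, 5% CO2).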
Potency is the fitted concentration of half-maximal effect.

Compound	Potency
COc1ccc(NC(=O)c2ccc(NC(=O)c3cccs3)cc2)cc1	inactive
O=C1CCC(=O)N1c1ccc(NCCc2ccccc2F)c([N+](=O)[O-])c1	inconclusive: 18.5 µM [inhibitor, partial curve, poor fit]
O=C(Nc1nc(-c2ccc(Cl)s2)cs1)c1ccco1	inactive
CC1(C)CC(=O)C(C=NCCN2CCN(CC(=O)Nc3ccc(F)cc3)CC2)=C(O)C1	inactive
CC(C)(C)C(=O)OCCNc1nc(-c2ccccc2)nc2ccccc12	inconclusive: 3.7 µM [inhibitor, partial curve, poor fit]
CC(=O)NC1C(OCc2ccccc2)OC2COC(c3ccccc3)OC2C1OCC(=O)O (stereo not drawn)	inactive
O=C(CN1CCOCC1)n1c2ccccc2c2ccccc21	inconclusive: 0.0041 µM [inhibitor, full curve, poor fit]
CCOC(=O)c1cccc(NC(=O)CCc2nc(-c3ccc(C)cc3)no2)c1	active: 1.04 µM
O=C(NCc1cccnc1)C1CC(c2ccc(Cl)c(Cl)c2)=NO1 (stereo not drawn)	inconclusive: 13.1 µM [inhibitor, single point]
COc1ccc(NC(=O)C(=S)NC2CCCCC2)cc1	inactive
C/C=C(/C)C(=O)Nc1cccc(C2=NOC3(C2)C[C@H](C(N)=O)N(C(=O)Cc2ccc([N+](=O)[O-])cc2)C3)c1 (stereo partly drawn)	inconclusive: 18.5 µM [inhibitor, single point]
N#C/C(=C\c1cccnc1)C(=O)Nc1ccc(SC(F)F)cc1	inactive
CC(Sc1nncs1)C(=O)Nc1ccc2c(c1)OCCO2 (stereo not drawn)	inactive
COCC(=O)N(Cc1nc2ccccc2c(=O)[nH]1)Cc1cccs1	inconclusive: 1.85 µM [inhibitor, single point]
CCN(C(=O)/C=C/c1ccc(OC)cc1)C1CCCCC1	inconclusive: 13.1 µM [inhibitor, single point]
CC(CN1CCOCC1)(NS(=O)(=O)c1ccccc1)c1ccccc1 (stereo not drawn)	inconclusive: 13.1 µM [inhibitor, single point]
COc1ccc2c(-c3ccccc3)cc(SCC(=O)N(C)C3CCS(=O)(=O)C3)nc2c1 (stereo not drawn)	inconclusive: 11.7 µM [inhibitor, single point]
Cc1ccc(C)c2[nH]c(=O)c(CN(Cc3ccco3)C(=S)NCC3CCCO3)cc12 (stereo not drawn)	inactive
COc1ccccc1NS(=O)(=O)c1cc(NC(=O)C2CC2)ccc1N1CCOCC1	active: 11.7 µM
COC(=O)C1=C(c2cccc(C#N)c2)C[C@@H]2CC[C@H]1N2C(=O)NCc1cc(C)oc1C(F)(F)F	inconclusive: 2.33 µM [inhibitor, full curve]
CC(=O)n1cc([C@H]2C=C(C(=O)Nc3ccccc3)O[C@@H](OCCCCO)C2)c2ccccc21	inconclusive: 9.28 µM [inhibitor, partial curve, poor fit]
Fc1cccc2sc(Nc3nc4ccccc4s3)nc12	inactive
CCN(CC)C(=O)C1CCCN(c2ccc([N+](=O)[O-])cc2/C=N/NC(=O)c2cccc([N+](=O)[O-])c2)C1 (stereo not drawn)	active: 10.4 µM
Cc1ccc2c(CN(C)Cc3ccc(OC(F)F)cc3)cc(=O)oc2c1C	inconclusive: 11.7 µM [inhibitor, single point]
CCCCc1nnc2c(N(C)S(=O)(=O)c3ccc(C)cc3)nc3ccccc3n12	active: 11.7 µM

A portion from further up:
Compound	Potency
COCC(=O)N(Cc1nc2ccccc2c(=O)[nH]1)Cc1cccs1	inconclusive: 1.85 µM [inhibitor, single point]
CCN(C(=O)/C=C/c1ccc(OC)cc1)C1CCCCC1	inconclusive: 13.1 µM [inhibitor, single point]
CC(CN1CCOCC1)(NS(=O)(=O)c1ccccc1)c1ccccc1 (stereo not drawn)	inconclusive: 13.1 µM [inhibitor, single point]

Next part:

Compound	Potency
Cc1nnc(SC(C)C(=O)Nc2ccc3c(c2)OCCO3)s1 (stereo not drawn)	active: 10.4 µM
CC1=C(C(=O)OCC2CCCO2)C(c2ccc(Cl)c(Cl)c2)NC(=O)N1 (stereo not drawn)	inconclusive: 4.15 µM [inhibitor, partial curve]
Cc1ccc(C(=O)N/N=C2\SCC(=O)N2c2cc(C)ccc2C)cc1	inactive
CCOc1ccc(NC(=O)CN(C)C(=O)c2ccc(N3CCCCCC3)c([N+](=O)[O-])c2)cc1OCC	inconclusive: 14.7 µM [inhibitor, single point]
Cc1cccnc1NC(=O)Nc1ccccc1	inactive
Cc1nc2ccc(NC(=O)c3ccc(Br)o3)cc2s1	inactive
COc1ccc(-n2nc(C(=O)c3cccs3)cc(-c3nc4ccccc4[nH]3)c2=N)cc1	inconclusive: 4.15 µM [inhibitor, single point]
O=C(/C=C/c1ccc(Cl)cc1Cl)N1CCN(c2ccccc2[N+](=O)[O-])CC1	inactive
Cc1ccccc1OCC(=O)Nc1ccc(S(=O)(=O)N2CCOCC2)cc1	inconclusive: 10.4 µM [inhibitor, partial curve, poor fit]
Cc1cc(O)ccc1Nc1nc(-c2cccs2)cs1	inactive
COc1ccccc1CNC(=O)CN1c2cccc3cccc(c23)S1(=O)=O	inconclusive: 18.5 µM [inhibitor, single point]
COC(=O)c1cn(CCOc2ccccc2F)c2ccccc12	inactive
Cc1cc(C(=O)CSc2nnc(-c3cccc(F)c3)n2N)c(C)n1Cc1ccc2c(c1)OCO2	active: 16.5 µM
CCn1cc(C(=O)NCCN(C)C)c(=O)c2cc(F)c(N3CCN(C)CC3)cc21	inconclusive: 18.5 µM [inhibitor, single point]
CC(C)NC(=O)COC(=O)/C=C/c1ccc(F)cc1	inactive
CC(OC(=O)c1cccnc1)C(=O)Nc1ccc2c(c1)OCO2 (stereo not drawn)	inconclusive: 13.1 µM [inhibitor, single point]
CC1(OC(=O)C2CCCC2)C(=O)C=C2C=C(c3ccsc3)N(CC3CC3)C=C2C1=O (stereo not drawn)	inconclusive: 10.4 µM [inhibitor, single point]
NS(=O)(=O)c1ccc(NC(=O)Nc2cccc3ccccc23)cc1	inactive
Cc1cc(C)nc(N2CCCC(C(=O)Nc3nnc(C(C)(C)C)s3)C2)n1 (stereo not drawn)	inactive
Cc1nc(CS(=O)c2ccc(Cl)cc2)cc(NCc2ccc(Cl)cc2Cl)n1 (stereo not drawn)	inconclusive: 16.5 µM [inhibitor, partial curve]
CCCCNC(=O)CCC(=O)N1CCN(C(c2ccccc2)c2ccccc2)CC1	inconclusive: 18.5 µM [inhibitor, single point]
CN1C(=O)C(C)(C)c2cc(S(=O)(=O)N3CCN(c4ccccc4)CC3)ccc21	inconclusive: 3.29 µM [inhibitor, full curve]
Cc1ccc(NC(=O)Cc2c[nH]c3ccccc23)cc1S(=O)(=O)N1CCCCCC1	active: 11.7 µM
CN(C(=O)c1cc2c(s1)-c1ccccc1S(=O)(=O)C2)c1ccccc1F	inconclusive: 2.62 µM [inhibitor, full curve]
CC[N+]12CCC(CC1)C(C(O)(c1ccccc1)c1ccccc1)C2 (stereo not drawn)	inconclusive: 10.4 µM [inhibitor, single point]

Compound	Potency
O=C(NCC1CCCCC1)C1(CC2CC(c3ccc(Cl)cc3)=NO2)CCNCC1 (stereo not drawn)	inconclusive: 10.4 µM [inhibitor, partial curve, poor fit]
CC(C)Sc1nc2c([nH]1)c(=N)ncn2Cc1ccccc1	inconclusive: 0.415 µM [inhibitor, partial curve, poor fit]
Cn1ncc(N=Cc2ccccc2)c1C(N)=O	inconclusive: 10.4 µM [inhibitor, single point]
Cc1ccc(-c2c(=O)n(OCc3ccccn3)c3ccccc3[n+]2[O-])cc1	inactive
CSc1nc(N2CCN(c3ccccc3Cl)CC2)c2ccccc2n1	inconclusive: 10.4 µM [inhibitor, single point]
CSc1ccc(S(=O)(=O)N2CCC(C(=O)NCc3ccncc3)CC2)cc1	active: 7.38 µM
COc1ccc([C@@H]2C[C@H](c3ccccc3)Oc3cc(C)cc(C)c32)cc1	inconclusive: 18.5 µM [inhibitor, single point]
COc1ccc(NC(=O)CN2CCCCCC2)cc1OC	inactive
COc1cccc(COCCN2CCN(S(=O)(=O)c3ccc(C)cc3)CCC2=O)c1	inconclusive: 13.1 µM [inhibitor, partial curve]
Cc1cc2oc(=O)cc(CSc3nnc(C)n3N)c2cc1C(C)C	inconclusive: 18.5 µM [inhibitor, single point]
Cc1cc(C)nc(NC2=NCC(=O)N2c2cccc(Cl)c2)n1	inconclusive: 18.5 µM [inhibitor, single point]
COc1ccccc1C(CNC(=O)CSc1ccc2ccccc2c1)N(C)C (stereo not drawn)	inconclusive: 16.5 µM [inhibitor, single point]
O=C(NCc1ccco1)c1cc(-c2ccc(F)cc2)on1	inconclusive: 0.37 µM [inhibitor, partial curve, poor fit]
O=[N+]([O-])c1ccc(C[n+]2cccc3ccc4cccnc4c32)cc1	inconclusive: 18.5 µM [inhibitor, single point]
Cc1ccc(-n2c(CNc3ccc(F)cc3)nnc2SCC(=O)N2CCOCC2)cc1	inconclusive: 14.7 µM [inhibitor, partial curve, poor fit]
O=C(c1ccc(Sc2ccccc2)c([N+](=O)[O-])c1)N1CCOCC1	inactive
Cc1ccc(N=C2NC(=O)S/C2=C\c2ccco2)cc1	inconclusive: 18.5 µM [inhibitor, single point]
COc1cc(C2CC(=O)c3cnc(NC(=O)c4ccco4)nc3C2)cc(OC)c1OC (stereo not drawn)	inactive
Cc1cc[n+](CC(=O)c2ccc(NC(=O)c3ccccc3)cc2)cc1	inactive
CCOC(=O)c1c(NC(=O)CSc2nnnn2C)sc(C(=O)N(C)C)c1C	inactive
COc1ccc(C(=O)NCCS(=O)(=O)N2CCN(C(=O)c3ccco3)CC2)cc1	inactive
O=C(Nc1c(O)c2ccccc2[nH]c1=O)c1ccco1	inactive
O=C1NC(=O)C(CCc2ccncc2)(CCc2ccncc2)C(=O)N1CCc1ccc(F)cc1	inconclusive: 13.1 µM [inhibitor, partial curve]
